Data as given in PubChem BioAssay AID1224826 (NIAID, 2016).

Assay: 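Regulators of Tlr4 signalling leading to Tnf-alpha expression in macrophages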 (primary screen)
System: RAW264.7 G9 macrophages from mouse bearing reporters for p65 (GFP) and the Tnf promoter (mCherry)
Knock-down reagent: siRNA pool against mouse genes, 100 nM
Duration: 16 h of LPS stimulation, after 2 days of siRNA transfection
Challenge: bacterial lipopolysaccharide (Salmonella minnesota R595), 10 ng/ml
Measured: 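Nuclear mCherry signal of the Tnf promoter reporter measured by imaging after background removal, scaled to each plate median and turned into robust z-scores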
Reading the numbers: Tnf reporter robust z-score: higher = stronger Tnf promoter reporter signal after LPS
Rule for the call: 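a well counts as active at a score of -1.3 or below (Tlr4 knock-down control median) or above 3 (raised signal); controls and wells holding fewer than 50 cells are excluded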
Calls: active = Tnf reporter clearly lowered or raised; inactive = no clear change in Tnf reporter
Shown is a random part of about 17,000 reagents tested. In the full data, about 1,110 (6.6%) were called active. 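Active means lowered or raised reporter signal; replicate intensities are raw and not normalised per plate.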 Further read-outs or replicates are left out here. No sequences are given here.

| gene | Tnf reporter robust z-score | fewer than 50 cells in well | outcome |
| --- | --- | --- | --- |
| Hsd17b14 | -1.23 | enough cells in well | inactive |
| Arhgap4 | – | fewer than 50 cells per well; well left out of calls | inactive |
| Sin3a | 0.08 | enough cells in well | inactive |
| Cdk7 | -0.31 | enough cells in well | inactive |
| 2310011J03Rik | 1.27 | enough cells in well | inactive |
| Klrc1 | 0.63 | enough cells in well | inactive |
| Eif4e2 | 0.07 | enough cells in well | inactive |
| Ccdc22 | 0.27 | enough cells in well | inactive |
| Ccdc34 | 0.56 | enough cells in well | inactive |
| Rps10 | – | fewer than 50 cells per well; well left out of calls | inactive |
| Thap2 | 1.42 | enough cells in well | inactive |
| Ndufa5 | -1.59 | enough cells in well | active |
| Tspan10 | -0.8 | enough cells in well | inactive |
| Ms4a8a | 0.32 | enough cells in well | inactive |
| Vmn1r93 | 2.26 | enough cells in well | inactive |
| Bacc1 | 1.75 | enough cells in well | inactive |
| Asb12 | 1.53 | enough cells in well | inactive |
| Gphn | -0.62 | enough cells in well | inactive |
| Fat1 | 0 | enough cells in well | inactive |
| Ppp1r3b | -0.32 | enough cells in well | inactive |
| Or11g24 | 5.64 | enough cells in well | active |
| C130070B15Rik | -1.02 | enough cells in well | inactive |
| Snx8 | -0.47 | enough cells in well | inactive |
| Gas7 | -0.24 | enough cells in well | inactive |
| Or4c11b | 1.6 | enough cells in well | inactive |
| Or4a74 | 1.71 | enough cells in well | inactive |
| Fkbp1a | -0.44 | enough cells in well | inactive |
| Rps15 | – | fewer than 50 cells per well; well left out of calls | inactive |
| Rpgrip1l | 1.19 | enough cells in well | inactive |
| Prpf38b | -1.3 | enough cells in well | active |
| Rps29 | -1.32 | enough cells in well | active |
| Hoxc4 | 0.27 | enough cells in well | inactive |
| Krtap9-1 | -1.79 | enough cells in well | active |
| Ezh2 | -1.22 | enough cells in well | inactive |
| Elk3 | -0.74 | enough cells in well | inactive |
| Hdhd2 | 1.74 | enough cells in well | inactive |
| Slc5a11 | – | fewer than 50 cells per well; well left out of calls | inactive |
| Fbxl5 | -0.5 | enough cells in well | inactive |
| Mrpl38 | 0.33 | enough cells in well | inactive |
| Fam20c | 0.12 | enough cells in well | inactive |
| Niban1 | 0.84 | enough cells in well | inactive |
| Spats2l | 0.18 | enough cells in well | inactive |
| Racgap1 | – | fewer than 50 cells per well; well left out of calls | inactive |
| Hsfy2 | -0.49 | enough cells in well | inactive |
| Pak4 | -0.72 | enough cells in well | inactive |
| Or10ag57 | -0.7 | enough cells in well | inactive |
| Lrrc3 | -1.23 | enough cells in well | inactive |
| Slc4a3 | 1.49 | enough cells in well | inactive |
| Rsl24d1 | 2.03 | enough cells in well | inactive |
| Etf1 | -1.23 | enough cells in well | inactive |
| Cstf1 | 1.3 | enough cells in well | inactive |
| Mbnl1 | -0.34 | enough cells in well | inactive |
| Gbp5 | -1.01 | enough cells in well | inactive |
| Msc | 0.67 | enough cells in well | inactive |
| Acot8 | -1.17 | enough cells in well | inactive |
| Ifit3 | – | fewer than 50 cells per well; well left out of calls | inactive |
| Cnksr2 | -0.34 | enough cells in well | inactive |
| Det1 | -0.98 | enough cells in well | inactive |
| Mov10 | 0.87 | enough cells in well | inactive |
| Zbtb20 | -0.45 | enough cells in well | inactive |
| Bpi | 1.3 | enough cells in well | inactive |
| Ing5 | 1.2 | enough cells in well | inactive |
| Gsr | 0.45 | enough cells in well | inactive |
| Tfap2e | 0.53 | enough cells in well | inactive |
| Zdhhc24 | – | fewer than 50 cells per well; well left out of calls | inactive |
| Mypop | – | fewer than 50 cells per well; well left out of calls | inactive |
| Jph3 | 0.94 | enough cells in well | inactive |
| Fut2 | 0.26 | enough cells in well | inactive |
| Apbb1 | -0.37 | enough cells in well | inactive |
| Dap | -0.5 | enough cells in well | inactive |
| Spo11 | 0.61 | enough cells in well | inactive |
| Lratd1 | 1.84 | enough cells in well | inactive |
| Clrn3 | -0.73 | enough cells in well | inactive |
| Ifitm7 | -0.91 | enough cells in well | inactive |
| P3h3 | 1.25 | enough cells in well | inactive |

Just “fewer than 50 cells in well”, for 4 of the entries above:
Tspan10 = enough cells in well
Ms4a8a = enough cells in well
Vmn1r93 = enough cells in well
Bacc1 = enough cells in well
